Measurements reported in PubChem BioAssay AID1159584 (Peter MacCallum Cancer Centre, 2016).

- Screen: 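Knock-downs that harm CDH1-null cells more than parental MCF10A cells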 (primary screen)
- Cell system: human MCF10A breast epithelial cells, parental and CDH1-null
- Reagents: siRNA against human genes
- Read-out: 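Cell viability by CellTiter-Glo ATP luminescence, each line scaled to the mean of mock wells across plates, then CDH1-null over parental ratio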
- Direction: CDH1-null / parental viability ratio: higher = CDH1-null cells survive relatively better than parental; CDH1-null viability vs mock: higher = more viable CDH1-null cells; parental viability vs mock: higher = more viable parental cells
In all, the deposit lists about 18,000 reagents; shown is a part drawn at random. The record does not give: the amount of reagent, the time to read-out.

| target gene | CDH1-null / parental viability ratio | CDH1-null viability vs mock (fraction of mock) | parental viability vs mock (fraction of mock) |
| --- | --- | --- | --- |
| PHF7 | 1.01 | 0.95 | 0.94 |
| COL5A3 | 1.04 | 0.86 | 0.83 |
| ADIPOR1 | 1.19 | 0.69 | 0.58 |
| GPC2 | 1.38 | 1.05 | 0.76 |
| IFT38 | 0.56 | 0.42 | 0.75 |
| EPC1 | 1.3 | 1.17 | 0.9 |
| AIP | 0.74 | 0.5 | 0.68 |
| LGSN | 0.93 | 0.91 | 0.98 |
| UBR5 | 1.19 | 0.88 | 0.74 |
| PCP4 | 1.53 | 0.92 | 0.6 |
| ITPRIPL2 | 1.01 | 1 | 0.99 |
| GSTP1 | 1.01 | 0.95 | 0.94 |
| C11orf52 | 0.92 | 0.58 | 0.63 |
| KIF1A | 1.11 | 0.92 | 0.83 |
| LCE2B | 0.69 | 0.8 | 1.16 |
| DEFB129 | 1.34 | 0.78 | 0.58 |
| PPP4R1 | 1.2 | 1.12 | 0.93 |
| PKDREJ | 1.14 | 1.12 | 0.98 |
| MILR1 | 0.65 | 0.4 | 0.62 |
| SHC3 | 0.94 | 0.98 | 1.04 |
| RIOX2 | 1.1 | 0.56 | 0.51 |
| LHX8 | 1.38 | 0.99 | 0.72 |
| GKN2 | 0.94 | 0.89 | 0.95 |
| MAP1LC3C | 1.01 | 1.08 | 1.07 |
| VIT | 1.11 | 1.05 | 0.95 |
| EPM2AIP1 | 1.42 | 0.34 | 0.24 |
| ANKS1A | 1.24 | 0.61 | 0.49 |
| UBLCP1 | 1.35 | 0.85 | 0.63 |
| CXCL5 | 1.17 | 0.9 | 0.77 |
| CBLB | 0.91 | 0.94 | 1.03 |
| ARHGDIB | 1.11 | 1.18 | 1.06 |
| NKD2 | 0.84 | 0.8 | 0.95 |
| TMEM186 | 1 | 0.76 | 0.76 |
| LIME1 | 0.9 | 0.72 | 0.8 |
| LHFPL7 | 0.57 | 0.36 | 0.63 |
| RAB3D | 0.85 | 0.98 | 1.15 |
| SLC25A2 | 1 | 0.74 | 0.74 |
| TAFA2 | 1.34 | 0.86 | 0.64 |
| OR2A2 | 1.41 | 0.48 | 0.34 |
| BCL6 | 1.07 | 0.94 | 0.88 |
| GON7 | 1.1 | 0.97 | 0.88 |
| VEZF1 | 0.99 | 0.95 | 0.96 |
| ISCA1 | 0.8 | 0.9 | 1.12 |
| UPK3A | 0.62 | 0.28 | 0.45 |
| PGBD5 | 1 | 0.98 | 0.98 |
| CD276 | 0.98 | 0.52 | 0.53 |
| KNG1 | 0.81 | 0.69 | 0.85 |
| MTMR3 | 0.97 | 0.7 | 0.72 |
| NDRG1 | 0.96 | 0.48 | 0.5 |
| IHH | 1.12 | 1 | 0.89 |
| TBCE | 1.03 | 1.19 | 1.16 |
| SERTAD1 | 0.85 | 0.55 | 0.65 |
| LILRB4 | 0.98 | 0.9 | 0.92 |
| UGP2 | 0.93 | 0.82 | 0.88 |
| NCAPG | 1.02 | 0.88 | 0.86 |
| UBB | 0.68 | 0.15 | 0.22 |
| SALL2 | 0.85 | 0.5 | 0.59 |
| SAMD1 | 1.38 | 0.84 | 0.61 |
| TXNL1 | 0.82 | 0.98 | 1.19 |
| SRSF9 | 1.14 | 0.92 | 0.81 |
| SNX9 | 0.85 | 0.7 | 0.82 |
| CUX1 | 1.05 | 1.03 | 0.98 |
| IFRD1 | 0.85 | 0.92 | 1.08 |
| PIP4P1 | 1 | 0.62 | 0.62 |
| TSGA13 | 0.89 | 1 | 1.12 |
| SHANK2 | 2.31 | 0.74 | 0.32 |
| ZNF281 | 1.1 | 0.86 | 0.78 |
| TMEM198 | 1.02 | 0.67 | 0.66 |

Not a retest: an excerpt of the list.
| target gene | CDH1-null / parental viability ratio | CDH1-null viability vs mock (fraction of mock) | parental viability vs mock (fraction of mock) |
| --- | --- | --- | --- |
| GON7 | 1.1 | 0.97 | 0.88 |
| VEZF1 | 0.99 | 0.95 | 0.96 |
| ISCA1 | 0.8 | 0.9 | 1.12 |
| UPK3A | 0.62 | 0.28 | 0.45 |
| PGBD5 | 1 | 0.98 | 0.98 |
| CD276 | 0.98 | 0.52 | 0.53 |
| KNG1 | 0.81 | 0.69 | 0.85 |
| MTMR3 | 0.97 | 0.7 | 0.72 |
| NDRG1 | 0.96 | 0.48 | 0.5 |
| IHH | 1.12 | 1 | 0.89 |
